According to patent US20090162869A1:
These are yes or no findings as the source states them, for the method shown. Binding seen in cells or lysates may run through a third protein. Binding can be weak; no strength is given.

Target: Myc tag-attached Plexin-A1 (full-length gene, expressed in 293T cells)
Experiment: co-immunoprecipitation from co-transfected 293T cells with antibody to membrane molecule (A), Western blot of tag

B1: membrane molecule (A) of the present invention (PDC-TREM), mouse, full length (receptor)
chain: QNPELLRTQEGETVSVTCWYDSLYHSSEKIWCKQIDNLCYPFVSKSAEKPRFLIQQSSRFNFFTVTMTKLKMSDSGIYHCGIVANNTSVYLRNIHLVVSKGSSVVSTPDIIPATRLTKLPTLITTKHSPSDTTTTRSLPQPTTVVSSPDPRVIIINGTDADRGFVSSVTIPVVCGLLSKTLVFTVLFIVTQKSFGRQAMKAHNSNS
Q: With B1 as the binder, how does the binding read?
A: The binding was “binds”.
